Experimental data: PubChem BioAssay AID1259254 (NCATS, 2017)

Purpose: 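Genome-wide screen for genes that prevent DNA re-replication in cancer cells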 (primary screen)
Cell system: human HCT116 colorectal cancer cells
Knock-down reagent: single siRNA against human genes
Time to read-out: 3 days
Measured: 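Imaged Hoechst DNA stain sorts each cell into a cycle phase by DNA amount; per plate, G2 fraction set to 0% for non-targeting and 100% for GMNN siRNA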
Reading the numbers: G2 robust z-score: higher = more G2 cells, more excess DNA replication
Active means: 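Active siRNAs have a G2 robust z of 5 or more median absolute deviations over the median, which in these data means about 38% or higher of GMNN control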
The whole screen tested about 59,000 reagents; below is a part drawn at random. Of all reagents, about 1,550 (2.6%) were called active. 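G2 share is only a proxy for re-replication; each gene was hit by three separate siRNAs, and active genes were retested.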 The numbers tell different reagents against one gene apart. Not all columns of the deposit are shown. No sequences are given here. The record does not give: the amount of reagent.

G2 robust z-score, by gene knocked down and reagent
ARSB: #1 0.867 inactive; #2 0.521 inactive; #3 -0.513 inactive
FAM227A: #1 -0.479 inactive; #2 1.99 inactive; #3 0.676 inactive
STK17B: #1 0.67 inactive; #2 0.167 inactive; #3 -0.129 inactive
GNA11: #1 -0.364 inactive; #2 1.03 inactive; #3 1.73 inactive
RNF24: #1 -0.781 inactive; #2 0.814 inactive; #3 0.5 inactive
SIPA1L1: #1 1.35 inactive; #2 -0.411 inactive; #3 -1.47 inactive
FBXW10B: #1 0.483 inactive; #2 -0.0188 inactive; #3 0.442 inactive
NSG2: #1 2.89 inactive; #2 5.91 active; #3 -0.231 inactive
PRR5L: #1 -0.518 inactive; #2 1.04 inactive; #3 1.89 inactive
ABCF1: #1 -0.314 inactive; #2 3.16 inactive; #3 0.312 inactive
CCL23: #1 -0.273 inactive; #2 1.52 inactive; #3 3.3 inactive
IVD: #1 -1.33 inactive; #2 1.76 inactive; #3 0.488 inactive
OXLD1: #1 1.46 inactive; #2 -1.2 inactive; #3 -0.938 inactive
TEKT3: #1 0.769 inactive; #2 1.82 inactive; #3 -0.0258 inactive
INTS1: #1 1.32 inactive; #2 -0.593 inactive; #3 -0.271 inactive
ITGA5: #1 7.27 active; #2 0.0326 inactive; #3 -0.182 inactive
VAMP1: #1 0.295 inactive; #2 -0.628 inactive; #3 1.76 inactive
ALG12: #1 0.0324 inactive; #2 -0.0689 inactive; #3 -0.304 inactive
DGKE: #1 -0.103 inactive; #2 -0.0772 inactive; #3 -0.251 inactive
PTPN12: #1 -0.666 inactive; #2 -0.23 inactive; #3 -0.336 inactive
OR2U1P: #1 4.52 inactive; #2 0.306 inactive; #3 -0.623 inactive
ATP11B: #1 0.363 inactive; #2 -1.39 inactive; #3 -1.38 inactive
LINC02610: #1 0.508 inactive; #2 -0.865 inactive; #3 4.24 inactive

5 of these entries, reformatted.
gene knocked down,siRNA no.,G2 robust z-score,call
NSG2,2,5.91,active
NSG2,3,-0.231,inactive
PRR5L,1,-0.518,inactive
PRR5L,2,1.04,inactive
PRR5L,3,1.89,inactive
